# Reference: patent US4190646A (Sloan-Kettering Institute for Cancer Research, priority 1979, dated 1980)
# Some peptides are written in HELM: one residue between dots, names in brackets for other building blocks, links after the first $.
# Test: Boc solid-phase peptide synthesis; chloromethylated resin; dicyclohexyl carbodiimide
# Settings: whole synthesis, scale 2 m moles
substance,measurement,value
PEPTIDE1{R.K.D.V.Y}$$$$V2.0,final purity (method not given),94%
